Assay [1] relates to MILI (PIWIL2) piRISC loaded with piRNA #1 (26 nt). Briefly: pre-steady-state target cleavage rate (min^-1); MIWI and MILI are mouse PIWI proteins and EfPiwi is from a freshwater sponge; tags in brackets are library labels; higher = faster piRNA-guided slicing of the target. The following applies: guide: piRNA #1 5'p-UGAGGUAGUAGGUUGUAUAGUAUCCA; auxiliary factor: 500 nM mouse GTSF1. An outline of the steps: (§1)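 The pre-steady-state cleavage rate was obtained by Cleave-'n-Seq with a burst-and-steady-state fit. A transcribed, DNA-blocked target RNA library (0.1 nM) was mixed with 1 nM active affinity-purified piRISC carrying one synthetic guide, with or without 500 nM GTSF1 partner protein, in HEPES–potassium acetate buffer at 33 °C for 0–8 or 0–960 min. Uncleaved targets were sequenced and normalised to depth and to weakly complementary targets, with three trials pooled and k3 capped at 0.0001 min^-1.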

The subject of assay [2] is MIWI (PIWIL1) piRISC loaded with piRNA #1 (30 nt). Described as above. The following applies: guide: piRNA #1 5'p-UGAGGUAGUAGGUUGUAUAGUAUCCAGAGG; auxiliary factor: 500 nM mouse GTSF1. The method in brief:
as §1

± gives the standard deviation. Only a part is listed here, and it is no random draw. The uncertainty is large for many entries.

Consider GGAGACCUAUGAUAUGUAGCUACAACCUCA, for which the “pre-steady-state target cleavage rate” value amounted to 0.000345 ± 0.014 in assay [1] and 0.000111 ± 0.024 in assay [2].

GGAGACCUAUGAUAUCAACCUAGUUCCUCA: the “pre-steady-state target cleavage rate” value worked out at 0.00018 ± 0.015 in assay [1] and 0.000151 ± 0.013 in assay [2].

As for GGAGUGGAUACUAUACAACGCUACUACCUCA, the “pre-steady-state target cleavage rate” value in assay [1] turned out to be 0.0044 ± 0.0029; in assay [2], 0.000565 ± 0.011.

As to GGAGACCUAUGAUAUGUUGCUACUACCCA, the figures for the “pre-steady-state target cleavage rate” value in assay [1] and in assay [2] were 0.000162 ± 0.018 and 0.00018 ± 0.0095, respectively.

Take GGAGACCUAUGAUAUCAACCUACUACCUAA: the “pre-steady-state target cleavage rate” value in assay [1] is 0.00177 ± 0.005; in assay [2], 0.000198 ± 0.017.

For GGAGACCUAUGAUUAAACCUACUACCUCA, the “pre-steady-state target cleavage rate” value in assay [1] is 0.00118 ± 0.0053; in assay [2] it was 0.000137 ± 0.024.

Regarding GGAGACCUAUGAUAUGUUCCAAGUACCUCA, the “pre-steady-state target cleavage rate” value in assay [1] is 0.000399 ± 0.012; in assay [2] it was 0.000126 ± 0.018.

In the case of GGAGACCUAUGAAUACAACCUACUUCGUCA, the results for the “pre-steady-state target cleavage rate” value in assay [1] and in assay [2] were 0.00141 ± 0.0038 and 0.000247 ± 0.0085, respectively.

On to GGAGACCUAUGAUAUCAACCUAACUACCUCA, for which the “pre-steady-state target cleavage rate” value in assay [1] amounted to 0.00218 ± 0.0032; in assay [2] it was 0.000458 ± 0.0047.

For the sequence GGAGACCUAUGAUUACAACCUUCAACCUCA, the “pre-steady-state target cleavage rate” value worked out at 0.00188 ± 0.0034 in assay [1] and 0.000277 ± 0.006 in assay [2].

Regarding GGAGACCUAUGAUAUCAUCCUACUUCCUCA, the “pre-steady-state target cleavage rate” value in assay [1] worked out at 0.00192 ± 0.0036; in assay [2] it was 0.000518 ± 0.0071.

For the sequence GGAGACCUAACUAUACAACCUGACUACCUCA, the “pre-steady-state target cleavage rate” value in assay [1] is 0.00117 ± 0.012; in assay [2] it was 0.000143 ± 0.041.

Turning to GGAGACCUAUGAUUACAACCAUGUACCUCA, the “pre-steady-state target cleavage rate” value was 0.00103 ± 0.0047 in assay [1] and 0.00105 ± 0.0049 in assay [2].

For GGAGACGAUACUAUACAAGCCUACUACCUCA, the “pre-steady-state target cleavage rate” value in assay [1] stood at 0.00196 ± 0.0044; in assay [2], 0.000796 ± 0.0071.

On to GGAGACCUAUGUAUACAACCUUCUUCCUCA, for which the “pre-steady-state target cleavage rate” value in assay [1] was determined as 0.00226 ± 0.0033; in assay [2] it was 0.00196 ± 0.0022.

As for GGAGACCUAACUAUACAACCAUCUACCUCA, the “pre-steady-state target cleavage rate” value is 0.00176 ± 0.0089 in assay [1] and 0.0013 ± 0.011 in assay [2].

GGAGACCUAACUAUACAACCUCUACCUCA: the “pre-steady-state target cleavage rate” value in assay [1] was 0.000453 ± 0.016; in assay [2] it was 0.000125 ± 0.037.

GGAGAGGAUACUAUACAACCUAGUACCUGA: the “pre-steady-state target cleavage rate” value in assay [1] worked out at 0.000865 ± 0.0057; in assay [2], 0.00274 ± 0.0029.

GGAGACCUAUGAAUACAACCUACUACGACA: the “pre-steady-state target cleavage rate” value came to 0.00245 ± 0.0039 in assay [1] and 0.000376 ± 0.007 in assay [2].

Take GGAGACCAUACUAUACAAUCCUACUACCUCA: the “pre-steady-state target cleavage rate” value in assay [1] came out at 0.0015 ± 0.0071; in assay [2], 0.00057 ± 0.014.

Consider GGAGACCUAUGAUAUCAACCUACUAUCCUCA, for which the figures for the “pre-steady-state target cleavage rate” value in assay [1] and in assay [2] were 0.00268 ± 0.0037 and 0.00037 ± 0.0067, respectively.

Regarding GGAGACCUAUGAAUACAACGUAGUACCUCA, the “pre-steady-state target cleavage rate” value in assay [1] came out at 0.000729 ± 0.0083; in assay [2], 0.000184 ± 0.011.

Take GGAGACCUUACUAUACAACCCUACUACCUCA: the results for the “pre-steady-state target cleavage rate” value in assay [1] and in assay [2] were 0.00102 ± 0.0067 and 0.000108 ± 0.021, respectively.

With GGAGACCUAUGAUAUGUUCCAACUACCUGA, the “pre-steady-state target cleavage rate” value in assay [1] came out at 0.000228 ± 0.012; in assay [2], 0.000304 ± 0.012.

With GGAGACCUAUGAUUACAACGCUACUACCUCA, the results for the “pre-steady-state target cleavage rate” value in assay [1] and in assay [2] were 0.000309 ± 0.011 and 0.00025 ± 0.011, respectively.

As to GGAGACCUAUGUAUACACACCUACUACCUCA, the “pre-steady-state target cleavage rate” value came to 0.000819 ± 0.0088 in assay [1] and 0.000886 ± 0.0057 in assay [2].

As for GGAGACCUAUGAUAACAACCUCUACCUCA, the “pre-steady-state target cleavage rate” value in assay [1] was determined as 0.00015 ± 0.017; in assay [2], 0.000173 ± 0.015.

On to GGAGACCUAUGUUUACAACCAACUACCUCA, for which the results for the “pre-steady-state target cleavage rate” value in assay [1] and in assay [2] were 0.00317 ± 0.0034 and 0.00085 ± 0.0052, respectively.

As for GGAGACCUAUGAUUACAACCUACUUCGUCA, the entries for the “pre-steady-state target cleavage rate” value in assay [1] and in assay [2] were 0.00164 ± 0.0052 and 0.000705 ± 0.0073, respectively.

As for GGAGACCAUACUAUACAAGGAACUACCUCA, the “pre-steady-state target cleavage rate” value in assay [1] turned out to be 0.00168 ± 0.0046; in assay [2], 0.000761 ± 0.0062.

(Values after the supplement of paper PMC10338343.)
